Laboratory results taken from publication PMC8274477.
Results are given in words; binding and its absence hold for the method and conditions named. Some results given as binding are weak or reduced against the parent protein; the word gives no strength.

Chains of the proteins cited; added tags and fusions are not shown.
UniProt P26196: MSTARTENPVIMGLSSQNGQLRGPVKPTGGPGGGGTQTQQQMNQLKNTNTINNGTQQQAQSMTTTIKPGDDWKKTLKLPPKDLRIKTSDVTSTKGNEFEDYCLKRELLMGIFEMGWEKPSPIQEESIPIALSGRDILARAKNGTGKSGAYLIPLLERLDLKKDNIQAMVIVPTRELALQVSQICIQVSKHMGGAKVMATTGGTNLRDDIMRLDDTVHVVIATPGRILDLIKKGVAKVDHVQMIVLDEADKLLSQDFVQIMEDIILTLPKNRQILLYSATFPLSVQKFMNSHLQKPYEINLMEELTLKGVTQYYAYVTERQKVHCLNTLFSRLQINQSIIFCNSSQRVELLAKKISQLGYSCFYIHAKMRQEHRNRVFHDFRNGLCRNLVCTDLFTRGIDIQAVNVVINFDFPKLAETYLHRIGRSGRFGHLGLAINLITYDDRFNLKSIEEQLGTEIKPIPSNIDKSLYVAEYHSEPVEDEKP
UniProt Q9Y276: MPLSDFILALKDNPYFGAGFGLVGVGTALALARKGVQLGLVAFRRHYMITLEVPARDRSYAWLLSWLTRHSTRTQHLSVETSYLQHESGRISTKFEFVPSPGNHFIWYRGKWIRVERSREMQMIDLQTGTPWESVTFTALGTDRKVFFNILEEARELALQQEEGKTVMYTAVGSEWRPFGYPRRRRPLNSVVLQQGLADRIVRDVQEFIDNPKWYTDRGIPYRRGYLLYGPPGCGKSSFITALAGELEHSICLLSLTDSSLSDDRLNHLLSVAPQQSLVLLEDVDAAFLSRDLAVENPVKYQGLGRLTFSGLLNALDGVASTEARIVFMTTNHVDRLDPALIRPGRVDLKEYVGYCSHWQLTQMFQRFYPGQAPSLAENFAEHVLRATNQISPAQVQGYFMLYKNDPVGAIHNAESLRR
UniProt Q9Y3Z3: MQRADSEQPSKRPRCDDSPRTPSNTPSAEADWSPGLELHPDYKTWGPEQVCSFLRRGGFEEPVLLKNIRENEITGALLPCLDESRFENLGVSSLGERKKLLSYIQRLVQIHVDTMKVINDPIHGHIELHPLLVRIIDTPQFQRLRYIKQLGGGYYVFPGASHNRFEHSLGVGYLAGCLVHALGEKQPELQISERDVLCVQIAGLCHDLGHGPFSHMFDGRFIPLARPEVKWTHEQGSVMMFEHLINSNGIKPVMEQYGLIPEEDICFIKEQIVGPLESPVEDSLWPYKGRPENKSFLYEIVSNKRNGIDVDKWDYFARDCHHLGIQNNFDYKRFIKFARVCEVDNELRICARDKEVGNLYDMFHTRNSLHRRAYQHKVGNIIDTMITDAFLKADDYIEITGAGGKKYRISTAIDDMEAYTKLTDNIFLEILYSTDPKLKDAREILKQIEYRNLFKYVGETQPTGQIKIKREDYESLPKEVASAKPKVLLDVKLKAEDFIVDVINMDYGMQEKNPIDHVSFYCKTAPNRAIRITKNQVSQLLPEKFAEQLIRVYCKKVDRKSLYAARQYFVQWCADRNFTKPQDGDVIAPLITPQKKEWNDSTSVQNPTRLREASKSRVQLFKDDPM

Key:
Experiment in all cases: peptide or protein array; HuProt human proteome microarray; 5 ug/5 ml biotin-labelled LUBAC or OTULIN in solution, 1 h at room temperature; Cy5-streptavidin, scanned at 635 nm; BSA as negative control; hits: Z-score >= 3 and I_(Mean_Ratio) >= 1.4; both purified
[1] = molecular target: DDX6 (spot on the microarray) (human) (UniProt P26196)
MPST (human) = molecular target: T1, MPST (human) (UniProt P25325)
T1 sequence: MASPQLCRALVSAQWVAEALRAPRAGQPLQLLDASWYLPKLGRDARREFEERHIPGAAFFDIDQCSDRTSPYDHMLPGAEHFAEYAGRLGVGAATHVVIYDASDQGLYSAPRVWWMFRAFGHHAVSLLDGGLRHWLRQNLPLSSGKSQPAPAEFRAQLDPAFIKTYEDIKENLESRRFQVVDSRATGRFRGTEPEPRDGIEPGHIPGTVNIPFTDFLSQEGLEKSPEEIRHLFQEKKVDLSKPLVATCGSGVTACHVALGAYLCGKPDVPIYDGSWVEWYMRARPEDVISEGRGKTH

FAM120B (human) = molecular target: T2, FAM120B (human) (UniProt Q96EK7)
T2 sequence: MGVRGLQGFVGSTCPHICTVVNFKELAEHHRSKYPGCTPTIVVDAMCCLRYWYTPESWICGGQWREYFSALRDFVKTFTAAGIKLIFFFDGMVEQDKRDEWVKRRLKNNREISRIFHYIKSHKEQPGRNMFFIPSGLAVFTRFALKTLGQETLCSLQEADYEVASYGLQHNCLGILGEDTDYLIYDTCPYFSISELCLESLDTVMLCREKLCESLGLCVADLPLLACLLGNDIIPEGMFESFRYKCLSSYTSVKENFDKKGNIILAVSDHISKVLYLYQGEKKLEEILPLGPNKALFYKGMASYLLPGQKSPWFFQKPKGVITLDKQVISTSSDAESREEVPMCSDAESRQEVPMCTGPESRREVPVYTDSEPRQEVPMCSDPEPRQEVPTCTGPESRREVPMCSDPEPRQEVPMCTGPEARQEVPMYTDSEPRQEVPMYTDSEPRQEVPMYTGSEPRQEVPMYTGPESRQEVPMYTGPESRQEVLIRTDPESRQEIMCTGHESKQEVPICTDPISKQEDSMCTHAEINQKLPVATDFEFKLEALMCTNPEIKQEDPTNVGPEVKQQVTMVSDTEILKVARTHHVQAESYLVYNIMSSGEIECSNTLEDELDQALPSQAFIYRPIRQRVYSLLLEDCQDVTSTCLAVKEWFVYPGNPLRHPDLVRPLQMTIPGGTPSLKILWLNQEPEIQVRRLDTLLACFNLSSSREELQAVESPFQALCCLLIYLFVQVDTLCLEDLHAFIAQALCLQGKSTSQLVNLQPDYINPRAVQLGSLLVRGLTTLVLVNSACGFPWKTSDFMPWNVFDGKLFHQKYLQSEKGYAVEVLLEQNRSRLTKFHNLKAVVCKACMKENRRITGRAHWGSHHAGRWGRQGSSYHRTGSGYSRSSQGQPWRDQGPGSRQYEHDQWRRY

BCS1L (human) = BCS1L (human) (UniProt Q9Y276)
CSTF2T (human) = molecular target: T3, CSTF2T (human) (UniProt Q9H0L4)
T3 sequence: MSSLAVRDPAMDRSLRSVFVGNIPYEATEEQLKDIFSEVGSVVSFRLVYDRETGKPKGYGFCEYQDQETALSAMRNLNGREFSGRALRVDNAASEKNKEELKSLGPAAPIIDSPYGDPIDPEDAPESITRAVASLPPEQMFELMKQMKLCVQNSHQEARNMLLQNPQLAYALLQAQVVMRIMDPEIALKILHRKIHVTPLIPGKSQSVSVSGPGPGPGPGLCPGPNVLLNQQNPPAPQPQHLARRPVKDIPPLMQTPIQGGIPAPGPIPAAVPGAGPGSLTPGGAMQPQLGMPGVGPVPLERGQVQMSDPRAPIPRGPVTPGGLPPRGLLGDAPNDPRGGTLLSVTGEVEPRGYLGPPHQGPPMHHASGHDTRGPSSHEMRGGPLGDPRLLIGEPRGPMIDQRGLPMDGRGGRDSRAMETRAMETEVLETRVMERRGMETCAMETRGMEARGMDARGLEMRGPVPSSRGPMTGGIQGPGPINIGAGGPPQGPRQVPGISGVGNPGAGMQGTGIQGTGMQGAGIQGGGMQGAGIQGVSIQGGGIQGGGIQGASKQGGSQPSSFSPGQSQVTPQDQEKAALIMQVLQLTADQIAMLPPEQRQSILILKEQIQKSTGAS

SAMHD1 (human) = SAMHD1 (human) (UniProt Q9Y3Z3)

Measured: binding

linear ubiquitin chain assembly complex (LUBAC), purified as HIS-tagged HOIP with the subunit HOIL-1, biotin-labelled (from UniProt Q96EP0 1-1072; Q9BYM8 1-510)
binds: all assays above
